Test results as given in PMC8872419.
These are yes or no findings as the source states them, for the method shown. In cells and extracts the contact can be indirect. Some entries that bind do so weakly or less than the wild type.

Sequences of proteins named here, by UniProt entry; tags and fusion partners are left off. A change or cut given only in a name is not applied to a line headed by its entry.
UniProt Q16637: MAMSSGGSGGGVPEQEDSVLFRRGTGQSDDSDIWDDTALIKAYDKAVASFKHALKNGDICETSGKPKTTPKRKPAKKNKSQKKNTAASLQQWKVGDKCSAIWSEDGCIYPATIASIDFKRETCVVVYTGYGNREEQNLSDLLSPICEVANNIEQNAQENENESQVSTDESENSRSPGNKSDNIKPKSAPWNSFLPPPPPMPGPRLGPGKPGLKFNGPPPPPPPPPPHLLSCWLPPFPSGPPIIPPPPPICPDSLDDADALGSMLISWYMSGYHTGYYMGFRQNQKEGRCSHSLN

How the values were obtained:
Experiment in all cases: co-IP; lysate (1 mg) of HeLa cells 24 h after transfection, RIPA buffer without SDS; anti-myc-tag antibody on Dynabeads Protein A; washed three times; blots with anti-myc-tag and anti-SMN antibodies; band ratio End-SMN/Exo-SMN, in triplicate
[1] = target: mutated SMN1 protein with E134K, myc-tagged (exogenous) (human) (UniProt Q16637)
[2] = target: mutated SMN1 protein with Y276H, myc-tagged (exogenous) (human) (UniProt Q16637)
[3] = target: mutated SMN1 protein with Y277C, myc-tagged (exogenous) (human) (UniProt Q16637)

Measured: binding

endogenous FL-SMN1 and/or FL-SMN2 protein (endogenous SMN protein) (from UniProt Q16637 1-294)
binds: [1] | [2] | [3]
